Data as given in PubChem BioAssay AID686938 (Drosophila RNAi Screening Center, 2013).
The deposit covers about 23,000 reagents; shown is an unselected part of those that have a named target and a result. In the full data, 75 (0.33%) got an active call. 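Raw plate signals without normalisation; calls rest on plate z-scores that were not deposited; ratio present for only 364 wells.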 Entries without a mark were called inactive. Names joined by + are all predicted targets of the reagent. Not stated in the record: the dose of the treatment.

- Test: 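Knock-downs reducing store-operated calcium influx in Drosophila cells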 (primary screen)
- Cells: Drosophila S2R+ cells
- Reagents: long dsRNA against Drosophila genes, about 0.25 µg dsRNA per well, roughly 10,000 cells
- Time to read-out: 5 days of knock-down before the calcium assay
- Treatment: thapsigargin (SERCA pump blocker) to empty calcium stores; entry signal taken 4 min after adding it
- Read-out: 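Per-well fluo-4 fluorescence in two replicates, unnormalised, measured in resting cells and 4 min after store depletion by the SERCA blocker thapsigargin; ratio of the two present in few wells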
- Reading the numbers: calcium entry signal: higher = stronger calcium signal after store depletion; resting calcium signal: higher = higher resting calcium signal
- Units: calcium entry signal in fluorescence units; resting calcium signal in fluorescence units
- Active means: 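Called when the plate z-score of the entry-to-rest ratio, mean of duplicates, falls below −3; wells with low overall dye signal (Fmax z below −2) or more than five off-targets excluded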
- Calls: active = strongly reduced calcium entry; inactive = no strong reduction

{"gene": "CG33454", "DRSC id": "DRSC22914", "calcium entry signal, replicate 1": 4.54e7, "calcium entry signal, replicate 2": 3.61e7, "resting calcium signal, replicate 1": 2.48e7, "resting calcium signal, replicate 2": 1.81e7}
{"gene": "alpha-Est6", "DRSC id": "DRSC12618", "calcium entry signal, replicate 1": 3.03e7, "calcium entry signal, replicate 2": 3.46e7, "resting calcium signal, replicate 1": 1.24e7, "resting calcium signal, replicate 2": 1.53e7}
{"gene": "Rab4 + CG42239", "DRSC id": "DRSC05667", "calcium entry signal, replicate 1": 3.76e7, "calcium entry signal, replicate 2": 4.43e7, "resting calcium signal, replicate 1": 1.60e7, "resting calcium signal, replicate 2": 1.92e7}
{"gene": "alphaTry", "DRSC id": "DRSC07577", "calcium entry signal, replicate 1": 2.63e7, "calcium entry signal, replicate 2": 3.78e7, "resting calcium signal, replicate 1": 1.43e7, "resting calcium signal, replicate 2": 1.77e7}
{"gene": "CG34217", "DRSC id": "DRSC05083", "calcium entry signal, replicate 1": 3.39e7, "calcium entry signal, replicate 2": 5.44e7, "resting calcium signal, replicate 1": 1.67e7, "resting calcium signal, replicate 2": 2.32e7}
{"gene": "Hrd3", "DRSC id": "DRSC14156", "calcium entry signal, replicate 1": 5.05e7, "calcium entry signal, replicate 2": 4.50e7, "resting calcium signal, replicate 1": 2.35e7, "resting calcium signal, replicate 2": 1.93e7}
{"gene": "CG5089", "DRSC id": "DRSC06914", "calcium entry signal, replicate 1": 3.90e7, "calcium entry signal, replicate 2": 3.06e7, "resting calcium signal, replicate 1": 1.77e7, "resting calcium signal, replicate 2": 1.60e7}
{"gene": "CG3842", "DRSC id": "DRSC18326", "calcium entry signal, replicate 1": 2.03e7, "calcium entry signal, replicate 2": 3.15e7, "resting calcium signal, replicate 1": 1.05e7, "resting calcium signal, replicate 2": 1.26e7}
{"gene": "CG32643", "DRSC id": "DRSC18962", "calcium entry signal, replicate 1": 3.08e7, "calcium entry signal, replicate 2": 3.39e7, "resting calcium signal, replicate 1": 1.46e7, "resting calcium signal, replicate 2": 1.60e7}
{"gene": "CG8112", "DRSC id": "DRSC16377", "calcium entry signal, replicate 1": 4.83e7, "calcium entry signal, replicate 2": 3.95e7, "resting calcium signal, replicate 1": 2.21e7, "resting calcium signal, replicate 2": 1.91e7}
{"gene": "att-ORFB + DPCoAC", "DRSC id": "DRSC15556", "calcium entry signal, replicate 1": 3.29e7, "calcium entry signal, replicate 2": 4.15e7, "resting calcium signal, replicate 1": 3.76e7, "resting calcium signal, replicate 2": 1.63e7}
{"gene": "CG6497", "DRSC id": "DRSC10654", "calcium entry signal, replicate 1": 2.47e7, "calcium entry signal, replicate 2": 4.95e7, "resting calcium signal, replicate 1": 1.43e7, "resting calcium signal, replicate 2": 1.93e7}
{"gene": "CG6497", "DRSC id": "DRSC21469", "calcium entry signal, replicate 1": 2.44e7, "calcium entry signal, replicate 2": 3.21e7, "resting calcium signal, replicate 1": 1.34e7, "resting calcium signal, replicate 2": 1.39e7}

Already shown: entries from further up.
{"gene": "alphaTry", "DRSC id": "DRSC07577", "calcium entry signal, replicate 1": 2.63e7, "calcium entry signal, replicate 2": 3.78e7, "resting calcium signal, replicate 1": 1.43e7, "resting calcium signal, replicate 2": 1.77e7}
{"gene": "CG34217", "DRSC id": "DRSC05083", "calcium entry signal, replicate 1": 3.39e7, "calcium entry signal, replicate 2": 5.44e7, "resting calcium signal, replicate 1": 1.67e7, "resting calcium signal, replicate 2": 2.32e7}
